Article PMC9032445

The chains behind the UniProt entries cited, without tags or fusion partners. Where a name states a change or a piece, a line headed by the entry shows the natural chain unless it says otherwise.
UniProt Q9C103: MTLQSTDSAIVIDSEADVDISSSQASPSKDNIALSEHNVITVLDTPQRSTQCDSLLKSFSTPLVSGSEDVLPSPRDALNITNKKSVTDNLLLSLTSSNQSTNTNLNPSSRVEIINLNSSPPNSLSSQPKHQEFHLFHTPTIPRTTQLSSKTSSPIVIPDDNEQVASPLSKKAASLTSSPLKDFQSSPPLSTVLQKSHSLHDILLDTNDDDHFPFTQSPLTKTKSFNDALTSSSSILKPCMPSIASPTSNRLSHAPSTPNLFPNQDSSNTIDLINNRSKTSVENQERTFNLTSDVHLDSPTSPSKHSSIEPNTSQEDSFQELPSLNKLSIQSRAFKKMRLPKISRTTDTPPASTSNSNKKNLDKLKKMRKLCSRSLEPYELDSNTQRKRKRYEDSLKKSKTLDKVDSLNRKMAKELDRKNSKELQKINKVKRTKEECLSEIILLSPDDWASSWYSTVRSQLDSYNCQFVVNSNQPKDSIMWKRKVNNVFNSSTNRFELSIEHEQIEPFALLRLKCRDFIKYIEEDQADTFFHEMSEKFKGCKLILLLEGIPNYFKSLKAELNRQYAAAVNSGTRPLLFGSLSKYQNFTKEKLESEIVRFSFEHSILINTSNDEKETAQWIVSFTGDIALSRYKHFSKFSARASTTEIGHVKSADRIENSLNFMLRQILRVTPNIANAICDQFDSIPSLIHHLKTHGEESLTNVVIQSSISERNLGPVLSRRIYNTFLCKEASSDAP

T1: Mus81-6His (S. pombe) (UniProt P87231)
T1 sequence: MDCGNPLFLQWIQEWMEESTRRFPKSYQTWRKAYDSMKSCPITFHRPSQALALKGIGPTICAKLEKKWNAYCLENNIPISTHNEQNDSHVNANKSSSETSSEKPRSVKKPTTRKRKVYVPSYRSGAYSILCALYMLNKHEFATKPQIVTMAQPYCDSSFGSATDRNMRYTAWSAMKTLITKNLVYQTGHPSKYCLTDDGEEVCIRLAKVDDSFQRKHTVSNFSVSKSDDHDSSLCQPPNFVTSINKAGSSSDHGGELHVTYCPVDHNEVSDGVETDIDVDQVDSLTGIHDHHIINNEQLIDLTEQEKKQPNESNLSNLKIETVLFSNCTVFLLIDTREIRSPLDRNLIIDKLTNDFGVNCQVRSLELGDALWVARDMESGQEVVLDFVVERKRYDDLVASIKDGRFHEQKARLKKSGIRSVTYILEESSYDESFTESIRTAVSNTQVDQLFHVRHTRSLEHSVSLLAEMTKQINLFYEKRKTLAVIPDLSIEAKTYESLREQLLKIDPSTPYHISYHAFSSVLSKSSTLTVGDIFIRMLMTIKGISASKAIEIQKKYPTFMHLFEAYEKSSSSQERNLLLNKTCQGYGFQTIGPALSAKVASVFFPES

B1: Pmt3, the unique S. pombe SUMO ortholog (protein, UniProt O13351 1-117)
chain: MSESPSANISDADKSAITPTTGDTSQQDVKPSTEHINLKVVGQDNNEVFFKIKKTTEFSKLMKIYCARQGKSMNSLRFLVDGERIRPDQTPAELDMEDGDQIEAVLEQLGGCTHLCL

Legend:
Mus81-6His (S. pombe) = biological target: T1, Mus81-6His (S. pombe); assay: pull-down; co-expression in E. coli Rosetta (DE3) pLysS; cleared lysate on Ni2+ agarose beads (Mus81-6His), imidazole eluate on amylose beads (MBP-Eme1), eluted with 10 mM maltose; 4°C
[1] = biological target: Eme1^1-130 with point mutations in SIM1 (S. pombe) (UniProt Q9C103); assay: two-hybrid; LexA / B42-AD system in S. cerevisiae EGY48 + pSH18-34; Eme1^1-130 as bait; clones spotted onto 3% Gal -URA-TRP-HIS-LEU and 3% Gal -URA-TRP-HIS-Xgal plates, 30°C, 2 to 4 days
[2] = biological target: Eme1^1-130 with point mutations in SIM2 (S. pombe) (UniProt Q9C103); assay: as above
[3] = biological target: Eme1^1-130 with point mutations in both SIMs (S. pombe) (UniProt Q9C103); assay: as above

Row | Molecule | binding (Mus81-6His (S. pombe)) | binding [1] | binding [2] | binding [3]
1 | MBP-Eme1^cluster1* (mutated for S23/T50) (from UniProt Q9C103) | binds | – | – | –
2 | MBP-Eme1^cluster3* (mutated for S313/T384/S458) (from UniProt Q9C103) | binds | – | – | –
3 | MBP-Eme1^cluster2* (mutated for S126/T145/T215) (from UniProt Q9C103) | binds | – | – | –
4 | B1 | – | binds weakly | binds | no binding

No constants are given. Whether binding was seen depends on the method and setting. For part of these data: Binding can be weak; no strength is given. For part of these data: Binding seen in cells or lysates may run through a third protein. For part of these data: Sequences can lack the tags named with a protein.
